Reference: ChEMBL document CHEMBL2069199, “Development of isoform selective PI3-kinase inhibitors as pharmacological tools for elucidating the PI3K pathway” (Bioorg Med Chem Lett, 2012)

Protein sequences, listed by entry. Tags and fused reporters are not part of them. Lines headed by an entry give the natural chain unless they say otherwise; changes in a name come on top.
UniProt P48736: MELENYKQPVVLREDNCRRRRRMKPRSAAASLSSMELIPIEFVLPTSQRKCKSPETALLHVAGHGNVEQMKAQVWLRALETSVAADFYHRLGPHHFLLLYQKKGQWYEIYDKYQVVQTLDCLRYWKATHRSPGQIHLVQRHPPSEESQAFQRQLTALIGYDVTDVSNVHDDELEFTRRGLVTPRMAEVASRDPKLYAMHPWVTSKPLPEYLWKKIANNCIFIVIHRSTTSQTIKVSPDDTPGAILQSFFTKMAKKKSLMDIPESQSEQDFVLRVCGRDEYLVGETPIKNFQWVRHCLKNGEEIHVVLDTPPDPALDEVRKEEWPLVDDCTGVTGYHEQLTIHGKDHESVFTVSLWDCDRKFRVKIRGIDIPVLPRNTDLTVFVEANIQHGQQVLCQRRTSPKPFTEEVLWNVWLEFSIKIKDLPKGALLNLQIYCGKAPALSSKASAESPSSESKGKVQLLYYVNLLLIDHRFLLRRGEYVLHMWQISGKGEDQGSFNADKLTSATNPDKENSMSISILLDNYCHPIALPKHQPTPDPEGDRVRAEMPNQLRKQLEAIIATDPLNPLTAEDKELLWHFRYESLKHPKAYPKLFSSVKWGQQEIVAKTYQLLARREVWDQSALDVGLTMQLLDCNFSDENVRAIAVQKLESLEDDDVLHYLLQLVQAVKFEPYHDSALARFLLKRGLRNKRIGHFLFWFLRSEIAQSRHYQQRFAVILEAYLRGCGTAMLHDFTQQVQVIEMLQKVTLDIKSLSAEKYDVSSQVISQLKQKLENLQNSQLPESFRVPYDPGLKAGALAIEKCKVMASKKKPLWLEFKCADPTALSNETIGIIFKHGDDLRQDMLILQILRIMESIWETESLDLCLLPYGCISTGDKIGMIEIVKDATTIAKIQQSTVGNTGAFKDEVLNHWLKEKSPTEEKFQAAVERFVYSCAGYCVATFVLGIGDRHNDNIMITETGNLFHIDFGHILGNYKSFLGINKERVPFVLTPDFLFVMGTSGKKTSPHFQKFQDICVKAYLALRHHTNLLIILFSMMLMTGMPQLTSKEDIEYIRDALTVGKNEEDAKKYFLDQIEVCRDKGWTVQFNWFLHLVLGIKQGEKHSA

Target: Phosphatidylinositol 4,5-bisphosphate 3-kinase catalytic subunit gamma isoform (Homo sapiens, UniProt P48736)

CCn1nnc(CCNC(=O)Nc2nc(C)c(-c3ccc(S(C)(=O)=O)c(F)c3)s2)n1
Ki: 36 nM
